Laboratory results published in PMC10113159.
These are yes or no findings as the source states them, for the method shown. In cells and extracts the contact can be indirect. Some binding calls cover weakened binding; strength is not graded here.

Sequences of proteins named here, by UniProt entry; tags and fusion partners are left off. A change or cut given only in a name is not applied to a line headed by its entry. A line that says so, or that is headed by a name, gives the form on record, which may keep a tag or linker.
UniProt P15927: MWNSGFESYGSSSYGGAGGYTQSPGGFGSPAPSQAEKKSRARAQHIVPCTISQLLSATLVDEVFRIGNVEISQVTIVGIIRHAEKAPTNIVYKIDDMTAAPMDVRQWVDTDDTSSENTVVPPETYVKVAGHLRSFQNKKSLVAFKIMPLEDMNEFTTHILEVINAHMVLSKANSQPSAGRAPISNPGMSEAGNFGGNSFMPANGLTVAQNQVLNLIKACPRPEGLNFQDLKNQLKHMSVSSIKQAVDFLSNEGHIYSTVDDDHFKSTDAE
GFP-RPA2 S/T→D (P15927, form named): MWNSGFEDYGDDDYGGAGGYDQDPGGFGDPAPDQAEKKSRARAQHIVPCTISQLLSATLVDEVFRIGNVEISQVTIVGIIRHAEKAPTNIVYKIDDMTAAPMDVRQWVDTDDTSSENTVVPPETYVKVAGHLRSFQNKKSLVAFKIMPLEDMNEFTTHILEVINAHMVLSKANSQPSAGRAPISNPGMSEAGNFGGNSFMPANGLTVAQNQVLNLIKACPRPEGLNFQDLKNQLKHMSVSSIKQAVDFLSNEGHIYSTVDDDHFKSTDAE

Key:
[1] = target: GFP-RPA2 WT (human) (UniProt P15927); assay: co-IP; anti-GFP antibody and protein G-sepharose from benzonase-treated U-2 OS lysates (TNE buffer, 150 mM NaCl, 0.1% Igepal, 4 °C); naive U-2 OS cells as control; blot with anti-RPA2 antibody
[2] = target: GFP-RPA2 S/T→D (human) (UniProt P15927); assay: as above

Substance: endogenous RPA2 (from UniProt P15927 1-270) (other; other documents disagree on this pair)
- binding [1]: binds

Substance: endogenous RPA2 (from UniProt P15927 1-270)
- binding [2]: binds
